Experimental data reported in patent US20240294635A1.
Where a chain is given by its changes, count along the chain named. These are yes or no findings as the source states them, for the method shown. Some binding calls cover weakened binding; strength is not graded here. Blank lines part the entries; values can stand above or below the binder they belong to.

Biological target: cynomolgus/rhesus macaque CD47 protein, His Tag (ACRObiosystems, Cat. No. CD7-C52H1) (cynomolgus monkey (cynomolgus/rhesus macaque))
Experiment: Biacore SPR

binding: binds
B1: Xi14A9 (antibody, human IgG4 S228P, kappa, V domains shown)
VH: EVQLQQSGAEVARPGASVKLSCTVSGFNIEDDYIEWVKQRPEQGLEWIGRIDPANDKTKYAPKFQDKATITGDTSSNTAYLQLSSLTSEDTAVYYCTRPGLRRYYSMDYWGQGTSVTVSS
VL: NIVLTQSPKSMSMSVGERVTLSCKASENVVSYVSWYQQKPEQSPKLLIYGASNRYTGVPDRFIGSGSSTDFTLIISSFQPEDLADYHCGQSYSYPLTFGAGTKLELKR

binding: binds
B2: hz14A9-2.3 (antibody, human IgG4 S228P, kappa, V domains shown)
VH: QVQLVQSGAEVKKPGASVKVSCKVSGFNIEDDYIEWVRQAPGQGLEWMGRIDPANDKTKYAQKFQGRVTMTGDTSTNTVYMELSSLRSEDTAVYYCARPGLRRYYSMDYWGQGTLVTVSS
VL: DIQMTQSPSSLSASVGDRVTITCKASENVVSYVSWYQQKPGKAPKLLIYGASNRYTGVPSRFIGSGSSTDFTLTISSLQPEDFATYYCGQSYSYPLTFGQGTKLEIKR

binding: binds
B3: hz14A9-2.4 (antibody, human IgG4 S228P, kappa, V domains shown)
VH: B2 VH with A97T
VL: B2 VL

binding: binds
B4: Xi2H8 (antibody, human IgG4 S228P, kappa, V domains shown)
VH: QVQLKESGPGLVAPSQSLSITCTVSGFSLTNYGVHWVRQPPGKGLEWLGIIWAGGSTNYNSALMSRLSISKDNSKSQVFLKMNSLQTDDTAMYYCARDDYASMDYWGQGTSVTVSS
VL: DAFMTQTPLSLPVSLGDQASISCRSSQSLVHSNGNTYLHWYLQKPGQSPKLLIYKVSNRFSGVPDRFSGSGSGTDFTLKISRVEAEDLGVYFCSQSTHVPYTLGGGTKLEIKR

binding: binds
B5: Xi16E5 (antibody, human IgG4 S228P, kappa, V domains shown)
VH: EVQLQQSGPELKKPGETVKISCKASGYTFTNYGMNWVKQVPGKGLKWMGWINTNTGEPTYAEEFKGRFAFSLETSARTAFLQINNLKNEDTATYFCTRFSHLRGPMDYWGQGASVTVSS
VL: B4 VL with F3V, N35Y, V83L, Y101P, L103F

binding: binds
B6: hz3F10-1.2 (antibody, human IgG4 S228P, kappa, V domains shown)
VH: QVQLVQSGAEVKKPGSSVKVSCKASGYTFSRYWIEWVRQAPGQGLEWMGEFIPGSDTTNYAQKFQGRVTITAEISTNTAYMELSSLRSEDTAVYYCARGGLRRMDYWGQGTLVTVSS
VL: DIQMTQSPSSLSASVGDRVTITCRASSSVSSTYLHWYQQKPGKAPKLLIYTTSTLASGVPSRFSGSGSGTDFTLTISSLQPEDFATYYCQQFSDSTWTFGQGTKLEIKR

binding: binds
B7: hz3F10-4.2 (antibody, human IgG4 S228P, kappa, V domains shown)
VH: B6 VH
VL: B6 VL with D71S, F72Y, D94E

binding: binds
B8: hz3F10-2.2 (antibody, human IgG4 S228P, kappa, V domains shown)
VH: B6 VH
VL: B6 VL with D94E

binding: binds
B9: hz3F10-5.2 (antibody, human IgG4 S228P, kappa, V domains shown)
VH: B6 VH
VL: B6 VL with L48W, D71S, F72Y

binding: binds
B10: hz3F10-6.2 (antibody, human IgG4 S228P, kappa, V domains shown)
VH: B6 VH
VL: B6 VL with L48W, D71S, F72Y, D94E

binding: binds
B11: Xi3F10 (antibody, human IgG4 S228P, kappa, V domains shown)
VH: EVQLQQSVAELMKPGASVKIYCKATGYTFSRYWIEWVKQRPGHGLEWIGEFIPGSDTTNFNEKFKGKATFTAEISSNTAYMQLSSLTSEDSAVYFCARGGLRRMDYWGQGTSVTVSS
VL: DIVMTQTPAIMSASPGEKVTMTCRASSSVSSTYLHWYQQKSGASPKLWIYTTSTLASGVPARFSGSGSGTSYSLTISSVEAEDAATYYCQQFSDSTWTFGGGTKLEIKR
